{"source": "PubChem BioAssay AID602196 (INSERM, 2012)", "purpose": "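Knock-downs that protect lung cancer cells from cisplatin or sensitise them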", "cells": "human A549 lung cancer cells", "reagents": "siRNA pair against human genes", "time to read-out": "48 h transfection before cisplatin; time from cisplatin to read-out not stated", "challenge": "cisplatin at a dose killing half of control-siRNA cells; exact dose and duration not given", "measured": "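Shift in cisplatin death relative to control siRNA, from -50 (all cells die) to +50 (no cells die); siRNAs harmful on their own scored 0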", "reading the numbers": "two-siRNA summed score (-2 to +2): higher = both siRNAs protect from cisplatin killing; -2 means both sensitise; mean protection from cisplatin (shift in death): higher = protection from cisplatin killing", "hit rule": "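siRNAs harmful alone (LDH or WST-1) get 0; others get +1 for less and -1 for more cisplatin killing; genes are active when the two siRNAs give the same sign, summing to ±2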", "calls": "active = both siRNAs shift cisplatin killing the same way; inactive = no consistent shift, or siRNA harmful alone", "note": "In all, the deposit lists about 23,000 reagents; shown is an unselected part. 455 of them (2%) count as active. 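Active includes both protection and sensitisation; some change values fall well beyond the stated -50 to +50 range.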 Unmarked entries are inactive. Further read-outs or replicates are left out here. Not stated in the record: the amount of reagent."}
{"Target gene":"LOC440287","two-siRNA summed score (-2 to +2)":"2 (active)","mean protection from cisplatin (shift in death) (%)":32.6}
{"Target gene":"RUNX3","two-siRNA summed score (-2 to +2)":-1,"mean protection from cisplatin (shift in death) (%)":-8.6}
{"Target gene":"MGARP","two-siRNA summed score (-2 to +2)":0,"mean protection from cisplatin (shift in death) (%)":2.6}
{"Target gene":"CIBAR2","two-siRNA summed score (-2 to +2)":0,"mean protection from cisplatin (shift in death) (%)":3.4}
{"Target gene":"NR2F1","two-siRNA summed score (-2 to +2)":1,"mean protection from cisplatin (shift in death) (%)":15.1}
{"Target gene":"LCN6","two-siRNA summed score (-2 to +2)":0,"mean protection from cisplatin (shift in death) (%)":4}
{"Target gene":"NOL9","two-siRNA summed score (-2 to +2)":0,"mean protection from cisplatin (shift in death) (%)":3.8}
{"Target gene":"MUCL3","two-siRNA summed score (-2 to +2)":1,"mean protection from cisplatin (shift in death) (%)":12.8}
{"Target gene":"SACK1D","two-siRNA summed score (-2 to +2)":0,"mean protection from cisplatin (shift in death) (%)":2.8}
{"Target gene":"LOC388169","two-siRNA summed score (-2 to +2)":0,"mean protection from cisplatin (shift in death) (%)":12.2}
{"Target gene":"LOC152905","two-siRNA summed score (-2 to +2)":0,"mean protection from cisplatin (shift in death) (%)":3.8}
{"Target gene":"EFCAB14","two-siRNA summed score (-2 to +2)":1,"mean protection from cisplatin (shift in death) (%)":13.6}

A portion of the results above:
{"Target gene":"LOC440287","two-siRNA summed score (-2 to +2)":"2 (active)","mean protection from cisplatin (shift in death) (%)":32.6}
{"Target gene":"RUNX3","two-siRNA summed score (-2 to +2)":-1,"mean protection from cisplatin (shift in death) (%)":-8.6}
